Data reported in publication PMC10514931.
These are yes or no findings as the source states them, for the method shown. Binding seen in cells or lysates may run through a third protein. Some results given as binding are weak or reduced against the parent protein; the word gives no strength.

Sequences of proteins named here, by UniProt entry; tags and fusion partners are left off. A change or cut given only in a name is not applied to a line headed by its entry.
UniProt Q15672: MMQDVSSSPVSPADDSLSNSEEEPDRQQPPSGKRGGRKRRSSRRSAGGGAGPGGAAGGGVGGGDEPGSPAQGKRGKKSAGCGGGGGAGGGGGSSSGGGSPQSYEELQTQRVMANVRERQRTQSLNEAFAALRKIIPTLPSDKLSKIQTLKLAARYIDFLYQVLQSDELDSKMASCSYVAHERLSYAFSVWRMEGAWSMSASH

Tests used:
flag-TWIST1 S31A [1] = molecular target: flag-TWIST1 S31A (UniProt Q15672); test: proximity ligation; Duolink PLA in fixed HEK-293 T cells (WT or S31A flag-TWIST1), anti-TWIST1 and anti-CBLC antibodies, confocal microscopy
flag-TWIST1 S31A [2] = molecular target: flag-TWIST1 S31A (UniProt Q15672); test: co-IP; lysates of HEK-293 T cells overexpressing flag-TWIST1 WT or S31A, IP and western blot for CBLC

binding (flag-TWIST1 S31A [1]): binds
binding (flag-TWIST1 S31A [2]): binds
B1: Casitas B-Lineage Lymphoma Proto-Oncogene C (CBLC) (enzyme, UniProt Q9ULV8 1-474)
chain: MALAVAPWGRQWEEARALGRAVRMLQRLEEQCVDPRLSVSPPSLRDLLPRTAQLLREVAHSRRAAGGGGPGGPGGSGDFLLIYLANLEAKSRQVAALLPPRGRRSANDELFRAGSRLRRQLAKLAIIFSHMHAELHALFPGGKYCGHMYQLTKAPAHTFWRESCGARCVLPWAEFESLLGTCHPVEPGCTALALRTTIDLTCSGHVSIFEFDVFTRLFQPWPTLLKNWQLLAVNHPGYMAFLTYDEVQERLQACRDKPGSYIFRPSCTRLGQWAIGYVSSDGSILQTIPANKPLSQVLLEGQKDGFYLYPDGKTHNPDLTELGQAEPQQRIHVSEEQLQLYWAMDSTFELCKICAESNKDVKIEPCGHLLCSCCLAAWQHSDSQTCPFCRCEIKGWEAVSIYQFHGQATAEDSGNSSDQEGRELELGQVPLSAPPLPPRPDLPPRKPRNAQPKVRLLKGNSPPAALGPQDPAPA
